Source: PMC7819943, “Rice protein-binding microarrays: a tool to detect cis-acting elements near promoter regions in rice”
Some of the results follow.

The chains behind the UniProt entries cited, without tags or fusion partners.
UniProt Q0JBA9, entry or part of it: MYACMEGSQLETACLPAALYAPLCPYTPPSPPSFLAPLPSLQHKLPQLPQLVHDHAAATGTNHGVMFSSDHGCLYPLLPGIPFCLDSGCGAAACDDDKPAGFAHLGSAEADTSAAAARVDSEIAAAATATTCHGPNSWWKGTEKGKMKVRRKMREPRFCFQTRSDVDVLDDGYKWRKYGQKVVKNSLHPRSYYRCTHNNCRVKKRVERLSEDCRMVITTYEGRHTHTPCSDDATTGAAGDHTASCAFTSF

Molecular target: OsWRKY34 (Oryza sativa, UniProt Q0JBA9 1-250)
Test: protein-binding microarray (RPBM); PBS, 2% BSA, 51.3 ng/ul salmon testes DNA, 50 uM zinc acetate, 200 nM TF, 25 C, 1 h; high values mean tight binding
Settings: protein: recombinant; tags: N-terminal polyhistidine and DsRed monomer fusion (pET32a); label: CyDye5-dUTP incorporated in the synthesized complementary strand; 3' TTTTT single-stranded linker to array surface; dsDNA, one strand shown
Summary of the method: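 Binding signal here means per-feature fluorescence intensity in arbitrary units. The values were read on an Axon 4000B scanner after a custom Agilent array, double-stranded by primer extension with Cy5-dUTP, was incubated with 200 nM protein at 25 °C for 1 h in PBS with 2% BSA, salmon testes DNA and 50 µM zinc acetate, then washed. The proteins were transcription factors with an N-terminal polyhistidine tag and DsRed, expressed in E. coli BL21-CodonPlus and purified on Ni–NTA.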

Row | Sequence | binding signal
1 | TATTGATTATGGTGTCATGTCTAGCTGATGGATGACTAATCGGAGTCACCTAGTGCAG | 8970 fluorescence intensity (a.u.)
2 | CTATTCAAATCAGGCCCATTAATTTTGTCACTTTCTCTATCGGAGTCACCTAGTGCAG | 9370 fluorescence intensity (a.u.)
3 | ATTCCGTCCATTCCCCTCCTGCGTACTTCCGCCGCGCGGCCGGAGTCACCTAGTGCAG | 8950 fluorescence intensity (a.u.)
4 | TGGCGCCGTCGTTCGTCCTGTTGCTTCCGCCCGCATCCTGCGGAGTCACCTAGTGCAG | 13600 fluorescence intensity (a.u.)
5 | CTTCTCTCAAAGTACCCGCGGAATCTCATTCGCTATATTCCGGAGTCACCTAGTGCAG | 8330 fluorescence intensity (a.u.)
6 | CCGCCGCCGCCGCCGCCGCCGCGGCCGGATCCCACGCGCGCGGAGTCACCTAGTGCAG | 8370 fluorescence intensity (a.u.)
7 | CCGCTGCTCCACCGCTACGACGCACGCCATCACACGCGCGCGGAGTCACCTAGTGCAG | 9830 fluorescence intensity (a.u.)
8 | TTTCTTTTTCTTGGTTTTTTTTTGTCTTTTCTTCTTTTTCCGGAGTCACCTAGTGCAG | 18200 fluorescence intensity (a.u.)
9 | ATTTGTATTGTGGTCCTGTGGAGTTTGCACTGTGGAATTTCGGAGTCACCTAGTGCAG | 9940 fluorescence intensity (a.u.)
10 | TAGTTGAGGGGCAGAGGTTTATGGTTTTGCGTATTGGGGACGGAGTCACCTAGTGCAG | 12500 fluorescence intensity (a.u.)
11 | CTCTCGGTGCCTGTCTCCACTCATCTCCTCTCGTTCTCTCCGGAGTCACCTAGTGCAG | 10400 fluorescence intensity (a.u.)
12 | TATCCATACTTGCATCTAGTCTAGCATGGGCCCCGGCCCACGGAGTCACCTAGTGCAG | 8440 fluorescence intensity (a.u.)
13 | TTCCTCCAAATGCAACCTTTTCTGTCAATCATTGTATTTACGGAGTCACCTAGTGCAG | 9060 fluorescence intensity (a.u.)
14 | CTGATCCGCATTTTTACTCTGTTTATCCGCAAGAAAGTTTCGGAGTCACCTAGTGCAG | 8290 fluorescence intensity (a.u.)
15 | TACACCATCCATTTTCAGTCTACGCATCCAACCTCCAAACCGGAGTCACCTAGTGCAG | 9830 fluorescence intensity (a.u.)
16 | CACCACCATCGTATGCTTTTGCGCGTATTTCAGCTGGTGACGGAGTCACCTAGTGCAG | 8150 fluorescence intensity (a.u.)
17 | CATATTTTTCTTTTTCATACCATATTGAGTTTTGCAAGGGCGGAGTCACCTAGTGCAG | 8120 fluorescence intensity (a.u.)
18 | TGTTCATGTCTAACGTTTGACCGTTCGTCTTATTTGAAAACGGAGTCACCTAGTGCAG | 9480 fluorescence intensity (a.u.)
19 | CGCTTCTTTTATTTGGGCCGGGCAGTTTCTGGGCTAGACCCGGAGTCACCTAGTGCAG | 8670 fluorescence intensity (a.u.)
20 | CCTGCCACATCAGCATAAACCGCTTACAAAACCACCCGAGCGGAGTCACCTAGTGCAG | 9050 fluorescence intensity (a.u.)
21 | GACCGCCGCGCTCGTCACCCACACCGGCCGCCGAGCTCGCCGGAGTCACCTAGTGCAG | 8590 fluorescence intensity (a.u.)
22 | GAAAATATCTGAAAGATACCGTTTGTCGTACTCCTTTTCTCGGAGTCACCTAGTGCAG | 9000 fluorescence intensity (a.u.)
23 | ACGACATCTACATGAATGTTTTAGCTTCTTTCCTTAGTTTCGGAGTCACCTAGTGCAG | 12900 fluorescence intensity (a.u.)
24 | GGCTGAGGGAGGTAATTTAGTTAGCAACAAGAGATAAGGGCGGAGTCACCTAGTGCAG | 9380 fluorescence intensity (a.u.)
25 | CCATGTGATTTGTTCCTTGGCTCTTCCACTCTCTAGCTCCCGGAGTCACCTAGTGCAG | 10200 fluorescence intensity (a.u.)
26 | GTCGGTTATATGTCTGTATCATGATGTAATTTTTTTACTGCGGAGTCACCTAGTGCAG | 9180 fluorescence intensity (a.u.)
27 | GATAATTCGTCGTTCGTTTTGTGCATCCATCCAGAATTCGCGGAGTCACCTAGTGCAG | 8990 fluorescence intensity (a.u.)

Row | Sequence | binding signal
28 | CCCAAGTGGATAGCGAATTCTTTTTCTCTCGTTCACATTCCGGAGTCACCTAGTGCAG | 11800 fluorescence intensity (a.u.)
29 | GCGCCACACCCACCGGCAGCTCCTCCTCGCACCGAGGTTGCGGAGTCACCTAGTGCAG | 8210 fluorescence intensity (a.u.)
30 | CATTTATTAATAGTGCGAAATTGAACCGAGTCTTTTTTTCCGGAGTCACCTAGTGCAG | 8160 fluorescence intensity (a.u.)
31 | GAGGAGGATTTGTCCTGGTTTGGTGGTGGTGGGGAGCGGCCGGAGTCACCTAGTGCAG | 15200 fluorescence intensity (a.u.)
32 | CCCCGTCTTCTCATCACCAGCTCAGCTGTGGCCGGCCGCGCGGAGTCACCTAGTGCAG | 8780 fluorescence intensity (a.u.)
33 | AGACTCTTTTGTTTCTGCCGTTCCAAATATTCCAACGTTTCGGAGTCACCTAGTGCAG | 8480 fluorescence intensity (a.u.)
34 | AATTAATTATAGGTCCTTTTTTGGCTCTGTTTACACGTATCGGAGTCACCTAGTGCAG | 8460 fluorescence intensity (a.u.)
35 | GTTGCCCTCTCCTTCCCGGCGCGGCCACTCCGTCCGCCGCCGGAGTCACCTAGTGCAG | 10800 fluorescence intensity (a.u.)
36 | AGACAGGAGTACATGACCAACCAATATTCTCAACCTTTTACGGAGTCACCTAGTGCAG | 8060 fluorescence intensity (a.u.)
37 | TCCAAGGACCTAATCGCAAAAAACACCGTAGCTGAAATAACGGAGTCACCTAGTGCAG | 8030 fluorescence intensity (a.u.)
38 | CTTTCTTTATTTCAAAAGTATGATACCGTTGACTTTTCACCGGAGTCACCTAGTGCAG | 24900 fluorescence intensity (a.u.)
39 | AAACCCACCCACCCAGCGCTTCTTCTTTCCTTTCTTTATTCGGAGTCACCTAGTGCAG | 12900 fluorescence intensity (a.u.)
40 | ACGCCCACACCCTCCTACTTATTGGCATCATTTTTCCTCTCGGAGTCACCTAGTGCAG | 8750 fluorescence intensity (a.u.)
41 | AGTTGTGCTCTTTTCTTAGCTTATTCATTCTTGTTGTATTCGGAGTCACCTAGTGCAG | 9470 fluorescence intensity (a.u.)
42 | AACGACGCCTAATCACCGTGTTTTGTTTCGTCTCGTAATCCGGAGTCACCTAGTGCAG | 8460 fluorescence intensity (a.u.)
43 | AATCCCTCGGGCGTCCCTTTGTACCTTTCTTTTTTCAAAACGGAGTCACCTAGTGCAG | 11300 fluorescence intensity (a.u.)
44 | GACATGAATCACGTTGACTGCACAATTTATTTCTTTGTTCCGGAGTCACCTAGTGCAG | 10900 fluorescence intensity (a.u.)
45 | GTGCAGCAATCATCTCGTCCACCTCACCTTACCCGAAACCCGGAGTCACCTAGTGCAG | 8340 fluorescence intensity (a.u.)
46 | CGTAATACTCCTTCCGTTTCATATTATATAAGTCGTTTGACGGAGTCACCTAGTGCAG | 11500 fluorescence intensity (a.u.)
47 | CTAGCTATATTACACGTTATTTTTTTTATTGTTATCATACCGGAGTCACCTAGTGCAG | 9630 fluorescence intensity (a.u.)
48 | AGCGTTACGCTTCACGGTTCACATTTTTTATATACTTCCTCGGAGTCACCTAGTGCAG | 9050 fluorescence intensity (a.u.)
49 | GGCCGTTTGATGCAGATCTCGCTTGGCAAAGCAAATCTCCCGGAGTCACCTAGTGCAG | 9720 fluorescence intensity (a.u.)
50 | TATCCACACCTCCACTTCATGTACATATATGGAATACCTACGGAGTCACCTAGTGCAG | 9650 fluorescence intensity (a.u.)
51 | GTCTTCTGTTCTCAATTATCAATTTTGCTATAGCTCACTCCGGAGTCACCTAGTGCAG | 9180 fluorescence intensity (a.u.)
52 | TTCTGGTCAGAATCATGTGTTTTTCCTATCCCTCCACTTTCGGAGTCACCTAGTGCAG | 8710 fluorescence intensity (a.u.)
53 | CTCTCTCTCTTCTTCGCTGGCTCGCGCAAATCGAGGCCTTCGGAGTCACCTAGTGCAG | 8680 fluorescence intensity (a.u.)
54 | GGTTCTCTGTTCTTGGCTGTTTTCTTCCAACCGTCTCATCCGGAGTCACCTAGTGCAG | 16200 fluorescence intensity (a.u.)

3 entries from above, as labelled records:
CCGCTGCTCCACCGCTACGACGCACGCCATCACACGCGCGCGGAGTCACCTAGTGCAG
  binding signal: 9830 fluorescence intensity (a.u.)
TTTCTTTTTCTTGGTTTTTTTTTGTCTTTTCTTCTTTTTCCGGAGTCACCTAGTGCAG
  binding signal: 18200 fluorescence intensity (a.u.)
ATTTGTATTGTGGTCCTGTGGAGTTTGCACTGTGGAATTTCGGAGTCACCTAGTGCAG
  binding signal: 9940 fluorescence intensity (a.u.)
